Results are given in words; binding and its absence hold for the method and conditions named. Binding seen in cells or lysates may run through a third protein. A yes stands for co-enrichment or nearness to the bait. Other partners may have been found. For some of these results: Tags and fused reporters may be left off the sequences shown.

By UniProt entry, the sequences of proteins in these tests, tags left out.
UniProt Q9D4H8: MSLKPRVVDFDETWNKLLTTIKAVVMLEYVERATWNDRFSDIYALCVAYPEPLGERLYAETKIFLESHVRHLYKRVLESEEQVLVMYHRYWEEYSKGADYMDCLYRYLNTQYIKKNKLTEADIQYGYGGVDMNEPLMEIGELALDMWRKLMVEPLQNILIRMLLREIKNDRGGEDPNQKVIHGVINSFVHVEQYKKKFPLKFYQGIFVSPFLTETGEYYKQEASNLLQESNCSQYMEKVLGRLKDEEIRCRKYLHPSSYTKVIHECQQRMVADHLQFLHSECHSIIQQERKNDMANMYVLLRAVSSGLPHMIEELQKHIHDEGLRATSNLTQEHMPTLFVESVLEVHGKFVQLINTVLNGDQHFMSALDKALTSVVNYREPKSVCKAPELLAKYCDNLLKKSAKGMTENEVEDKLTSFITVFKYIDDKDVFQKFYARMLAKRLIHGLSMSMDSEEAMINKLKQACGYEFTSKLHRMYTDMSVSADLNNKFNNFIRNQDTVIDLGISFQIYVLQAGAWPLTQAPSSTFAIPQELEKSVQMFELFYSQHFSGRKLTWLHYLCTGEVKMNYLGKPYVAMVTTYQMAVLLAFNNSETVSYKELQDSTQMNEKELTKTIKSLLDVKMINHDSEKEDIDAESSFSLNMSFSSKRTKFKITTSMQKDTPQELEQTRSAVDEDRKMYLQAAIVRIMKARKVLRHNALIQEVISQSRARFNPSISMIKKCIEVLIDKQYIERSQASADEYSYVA
UniProt Q61188: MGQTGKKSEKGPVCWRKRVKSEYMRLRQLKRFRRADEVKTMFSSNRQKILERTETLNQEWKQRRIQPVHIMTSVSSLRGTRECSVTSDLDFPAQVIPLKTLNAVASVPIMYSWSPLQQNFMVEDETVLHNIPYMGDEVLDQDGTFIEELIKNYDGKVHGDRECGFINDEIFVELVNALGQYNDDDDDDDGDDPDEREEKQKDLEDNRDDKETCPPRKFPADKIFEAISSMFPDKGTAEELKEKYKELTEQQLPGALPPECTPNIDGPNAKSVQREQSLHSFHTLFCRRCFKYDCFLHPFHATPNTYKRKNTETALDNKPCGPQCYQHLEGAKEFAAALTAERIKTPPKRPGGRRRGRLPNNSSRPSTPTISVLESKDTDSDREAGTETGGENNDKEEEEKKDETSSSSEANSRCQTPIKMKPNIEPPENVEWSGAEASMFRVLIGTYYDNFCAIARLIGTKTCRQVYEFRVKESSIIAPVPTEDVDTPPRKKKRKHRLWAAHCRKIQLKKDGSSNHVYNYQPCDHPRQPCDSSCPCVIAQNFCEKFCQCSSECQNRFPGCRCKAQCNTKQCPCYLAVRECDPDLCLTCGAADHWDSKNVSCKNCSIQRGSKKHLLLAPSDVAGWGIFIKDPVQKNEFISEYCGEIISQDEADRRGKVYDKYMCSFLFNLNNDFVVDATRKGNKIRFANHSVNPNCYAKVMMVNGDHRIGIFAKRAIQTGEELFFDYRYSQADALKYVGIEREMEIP
UniProt O09106: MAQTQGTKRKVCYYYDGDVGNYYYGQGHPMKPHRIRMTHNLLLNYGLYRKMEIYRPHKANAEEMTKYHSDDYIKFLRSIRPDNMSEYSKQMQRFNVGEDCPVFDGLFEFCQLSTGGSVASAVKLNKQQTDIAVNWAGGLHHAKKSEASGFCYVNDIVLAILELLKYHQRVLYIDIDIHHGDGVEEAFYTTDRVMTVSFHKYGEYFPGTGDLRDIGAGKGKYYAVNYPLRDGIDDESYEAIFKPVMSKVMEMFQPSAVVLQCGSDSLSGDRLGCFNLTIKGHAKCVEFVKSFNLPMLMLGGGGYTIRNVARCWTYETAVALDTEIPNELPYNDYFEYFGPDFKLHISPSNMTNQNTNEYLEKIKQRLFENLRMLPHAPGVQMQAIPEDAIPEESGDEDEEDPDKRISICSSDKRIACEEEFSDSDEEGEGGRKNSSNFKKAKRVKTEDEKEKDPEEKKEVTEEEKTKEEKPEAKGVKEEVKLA
UniProt E9Q7G0: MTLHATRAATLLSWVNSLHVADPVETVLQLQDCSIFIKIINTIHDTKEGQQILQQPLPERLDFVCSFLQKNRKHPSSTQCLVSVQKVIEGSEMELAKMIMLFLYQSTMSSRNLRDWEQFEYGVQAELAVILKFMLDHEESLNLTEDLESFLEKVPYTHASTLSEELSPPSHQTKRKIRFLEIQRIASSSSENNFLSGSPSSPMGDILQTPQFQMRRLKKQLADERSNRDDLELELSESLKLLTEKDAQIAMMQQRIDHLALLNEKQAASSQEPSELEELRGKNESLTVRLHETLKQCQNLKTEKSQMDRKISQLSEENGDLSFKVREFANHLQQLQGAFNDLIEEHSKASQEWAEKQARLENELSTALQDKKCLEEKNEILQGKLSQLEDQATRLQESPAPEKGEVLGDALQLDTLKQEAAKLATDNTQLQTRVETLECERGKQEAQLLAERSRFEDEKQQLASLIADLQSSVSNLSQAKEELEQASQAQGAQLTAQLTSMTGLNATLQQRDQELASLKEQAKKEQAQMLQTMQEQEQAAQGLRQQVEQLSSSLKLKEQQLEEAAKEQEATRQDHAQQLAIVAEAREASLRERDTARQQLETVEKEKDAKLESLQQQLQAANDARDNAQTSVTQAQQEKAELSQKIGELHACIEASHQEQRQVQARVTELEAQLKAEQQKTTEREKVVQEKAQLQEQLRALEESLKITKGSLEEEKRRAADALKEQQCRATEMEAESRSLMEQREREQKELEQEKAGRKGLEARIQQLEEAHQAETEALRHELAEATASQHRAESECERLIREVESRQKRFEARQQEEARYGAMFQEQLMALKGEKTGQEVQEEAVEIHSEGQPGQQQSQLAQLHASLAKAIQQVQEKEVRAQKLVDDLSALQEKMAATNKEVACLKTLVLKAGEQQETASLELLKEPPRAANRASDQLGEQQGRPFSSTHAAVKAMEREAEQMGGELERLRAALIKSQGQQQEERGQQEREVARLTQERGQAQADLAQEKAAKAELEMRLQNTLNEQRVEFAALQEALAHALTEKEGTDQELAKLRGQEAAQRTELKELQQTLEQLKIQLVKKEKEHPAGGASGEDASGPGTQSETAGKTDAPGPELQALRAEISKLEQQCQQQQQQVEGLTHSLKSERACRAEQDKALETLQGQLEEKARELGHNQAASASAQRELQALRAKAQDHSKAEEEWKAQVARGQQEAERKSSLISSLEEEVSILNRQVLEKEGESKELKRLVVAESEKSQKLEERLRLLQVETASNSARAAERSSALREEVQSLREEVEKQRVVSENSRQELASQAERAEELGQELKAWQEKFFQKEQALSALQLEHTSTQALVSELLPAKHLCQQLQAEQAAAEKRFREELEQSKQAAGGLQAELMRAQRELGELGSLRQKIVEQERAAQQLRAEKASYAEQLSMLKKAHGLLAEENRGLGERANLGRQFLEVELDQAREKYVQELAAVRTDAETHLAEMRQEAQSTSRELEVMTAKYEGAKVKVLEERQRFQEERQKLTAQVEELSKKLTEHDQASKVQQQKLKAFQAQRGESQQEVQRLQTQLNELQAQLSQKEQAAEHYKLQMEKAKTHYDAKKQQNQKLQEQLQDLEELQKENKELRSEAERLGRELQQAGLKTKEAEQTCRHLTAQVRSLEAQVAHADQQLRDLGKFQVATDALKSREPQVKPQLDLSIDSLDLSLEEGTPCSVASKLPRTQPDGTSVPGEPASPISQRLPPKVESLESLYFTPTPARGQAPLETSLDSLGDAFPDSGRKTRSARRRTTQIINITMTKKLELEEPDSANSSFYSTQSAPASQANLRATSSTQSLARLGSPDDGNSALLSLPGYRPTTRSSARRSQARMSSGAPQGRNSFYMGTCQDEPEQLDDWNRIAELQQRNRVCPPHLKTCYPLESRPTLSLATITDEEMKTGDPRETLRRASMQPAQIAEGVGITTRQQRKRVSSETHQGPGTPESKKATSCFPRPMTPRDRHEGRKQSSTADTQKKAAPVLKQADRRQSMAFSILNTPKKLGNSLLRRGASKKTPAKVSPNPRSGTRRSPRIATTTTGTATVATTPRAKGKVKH
UniProt Q9WTM5: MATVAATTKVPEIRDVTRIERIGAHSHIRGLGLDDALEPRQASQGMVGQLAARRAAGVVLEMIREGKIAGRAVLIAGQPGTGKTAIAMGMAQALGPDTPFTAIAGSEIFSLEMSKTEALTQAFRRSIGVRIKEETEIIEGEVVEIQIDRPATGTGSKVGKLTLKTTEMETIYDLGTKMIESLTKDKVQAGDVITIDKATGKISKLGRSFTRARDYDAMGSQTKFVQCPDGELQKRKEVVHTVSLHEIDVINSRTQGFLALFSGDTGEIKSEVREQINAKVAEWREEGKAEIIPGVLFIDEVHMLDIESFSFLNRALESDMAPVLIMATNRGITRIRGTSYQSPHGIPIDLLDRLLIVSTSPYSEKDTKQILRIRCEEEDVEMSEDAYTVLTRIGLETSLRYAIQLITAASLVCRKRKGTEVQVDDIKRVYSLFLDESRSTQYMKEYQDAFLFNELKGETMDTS
UniProt Q6PDQ2: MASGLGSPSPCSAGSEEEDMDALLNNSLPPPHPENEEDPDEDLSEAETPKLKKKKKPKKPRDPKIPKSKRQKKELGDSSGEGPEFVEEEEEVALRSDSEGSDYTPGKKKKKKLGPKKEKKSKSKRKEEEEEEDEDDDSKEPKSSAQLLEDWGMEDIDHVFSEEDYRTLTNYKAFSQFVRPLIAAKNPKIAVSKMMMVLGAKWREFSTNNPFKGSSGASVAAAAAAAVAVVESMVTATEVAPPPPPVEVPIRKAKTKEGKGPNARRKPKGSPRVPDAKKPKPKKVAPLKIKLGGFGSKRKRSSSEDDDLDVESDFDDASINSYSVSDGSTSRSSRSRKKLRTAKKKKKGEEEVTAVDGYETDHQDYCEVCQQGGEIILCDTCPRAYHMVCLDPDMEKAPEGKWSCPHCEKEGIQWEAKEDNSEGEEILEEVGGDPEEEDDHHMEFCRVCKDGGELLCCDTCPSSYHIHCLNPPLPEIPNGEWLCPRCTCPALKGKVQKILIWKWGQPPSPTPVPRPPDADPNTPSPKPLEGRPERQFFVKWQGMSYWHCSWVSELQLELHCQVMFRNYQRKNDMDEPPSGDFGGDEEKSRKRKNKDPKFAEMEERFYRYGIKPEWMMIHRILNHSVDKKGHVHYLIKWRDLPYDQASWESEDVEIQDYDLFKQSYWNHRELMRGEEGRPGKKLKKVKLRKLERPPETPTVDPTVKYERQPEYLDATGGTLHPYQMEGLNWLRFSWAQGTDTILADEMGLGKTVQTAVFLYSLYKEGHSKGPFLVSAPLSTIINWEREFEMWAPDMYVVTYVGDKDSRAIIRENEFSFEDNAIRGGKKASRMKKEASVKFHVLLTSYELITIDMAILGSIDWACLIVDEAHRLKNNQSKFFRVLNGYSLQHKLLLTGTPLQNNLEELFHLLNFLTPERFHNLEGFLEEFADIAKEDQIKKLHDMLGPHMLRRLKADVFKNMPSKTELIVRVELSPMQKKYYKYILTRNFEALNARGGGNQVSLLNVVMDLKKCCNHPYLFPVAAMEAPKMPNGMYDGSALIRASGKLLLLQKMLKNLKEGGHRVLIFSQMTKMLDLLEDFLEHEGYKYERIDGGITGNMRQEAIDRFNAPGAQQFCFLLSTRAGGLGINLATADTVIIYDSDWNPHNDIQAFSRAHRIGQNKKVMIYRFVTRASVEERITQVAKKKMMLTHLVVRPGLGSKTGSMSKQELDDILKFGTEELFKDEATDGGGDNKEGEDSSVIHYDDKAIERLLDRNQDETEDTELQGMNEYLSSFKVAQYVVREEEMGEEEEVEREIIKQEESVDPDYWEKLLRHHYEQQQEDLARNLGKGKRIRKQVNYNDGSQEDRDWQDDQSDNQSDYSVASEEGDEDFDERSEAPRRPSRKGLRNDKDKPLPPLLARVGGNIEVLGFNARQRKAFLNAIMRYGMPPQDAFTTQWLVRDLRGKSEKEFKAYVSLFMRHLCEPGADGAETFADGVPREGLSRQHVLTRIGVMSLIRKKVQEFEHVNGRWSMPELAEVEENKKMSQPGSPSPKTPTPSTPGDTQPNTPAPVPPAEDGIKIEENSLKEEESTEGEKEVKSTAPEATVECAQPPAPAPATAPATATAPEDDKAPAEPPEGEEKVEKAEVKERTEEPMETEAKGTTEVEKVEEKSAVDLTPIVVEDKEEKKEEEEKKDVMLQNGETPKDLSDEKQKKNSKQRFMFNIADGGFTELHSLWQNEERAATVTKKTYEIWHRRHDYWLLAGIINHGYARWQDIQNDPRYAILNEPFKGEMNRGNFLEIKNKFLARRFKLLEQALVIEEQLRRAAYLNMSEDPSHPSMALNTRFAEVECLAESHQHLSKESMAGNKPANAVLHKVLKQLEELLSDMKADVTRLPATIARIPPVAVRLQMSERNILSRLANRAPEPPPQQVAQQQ

For assay [1], the target named is T1, HA/FLAG-PRAMEL7ΔN, one transgene copy in the Rosa26 locus of mouse ESCs (ESC+H/F-Pramel7ΔN) (mouse) (UniProt Q810Y8).
T1 sequence: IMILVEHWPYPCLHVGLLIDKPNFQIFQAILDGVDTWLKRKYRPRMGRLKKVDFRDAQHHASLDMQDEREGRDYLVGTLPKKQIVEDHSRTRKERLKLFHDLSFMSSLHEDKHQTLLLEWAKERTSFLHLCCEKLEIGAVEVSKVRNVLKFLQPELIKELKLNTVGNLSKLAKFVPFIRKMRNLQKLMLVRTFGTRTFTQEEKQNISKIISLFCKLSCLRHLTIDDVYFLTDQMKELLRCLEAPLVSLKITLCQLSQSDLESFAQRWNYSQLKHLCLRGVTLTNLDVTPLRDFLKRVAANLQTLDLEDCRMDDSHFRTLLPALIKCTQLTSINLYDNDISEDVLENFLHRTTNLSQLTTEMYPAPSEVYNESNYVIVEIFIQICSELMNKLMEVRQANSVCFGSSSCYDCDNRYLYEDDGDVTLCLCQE
Nature of the assay: affinity purification with mass spectrometry.

The target of assay [2] is Cullin2 (CUL2), endogenous in mouse ESCs (mouse (endogenous in E14 ESCs)) (UniProt Q9D4H8). Nature of the assay: affinity purification with mass spectrometry.

With “CSNK2A1, endogenous in mouse ESCs (from UniProt Q60737 1-391)”, the binding result in assay [1] is reported as “binds”.

Take “DNA methyltransferase 1 (DNMT1), endogenous in mouse ESCs (from UniProt P13864 1-1620)”: the binding entry in assay [1] and in assay [2] was “binds” in each case.

Consider “EZH2, endogenous in mouse ESCs (from UniProt Q61188 1-746)”, for which the binding result in assay [1] is given as “binds”.

Turning to “HDAC1, endogenous in mouse ESCs (from UniProt O09106 1-482)”, the binding result in assay [1] is given as “binds”.

For the molecule “MSH6, endogenous in mouse ESCs (from UniProt P54276 1-1358)”, the binding result in assay [1] and in assay [2] was “binds” in each case.

For the molecule “MTA2, endogenous in mouse ESCs (from UniProt Q9R190 1-668)”, in assay [1], the binding result was “binds”.

“NUMA1, endogenous in mouse ESCs (from UniProt E9Q7G0 1-2094)”: the binding entry in assay [1] and in assay [2] was “binds” in each case.

“RUVBL1, endogenous in mouse ESCs (from UniProt P60122 1-456)”: the binding result in assay [1] is recorded as “binds”.

In the case of “RUVBL2, endogenous in mouse ESCs (from UniProt Q9WTM5 1-463)”, the binding result in assay [1] is listed as “binds”.

Turning to TDH, endogenous in mouse ESCs, the binding entry in assay [1] was “binds”.

For “UBA1, endogenous in mouse ESCs (from UniProt Q02053 1-1058)”, the binding result in assay [1] and in assay [2] was “binds” in each case.

For the molecule “chromodomain helicase DNA-binding protein 4 (CHD4), endogenous in mouse ESCs (from UniProt Q6PDQ2 1-1915)”, the binding result in assay [1] and in assay [2] was “binds” each time.

B1: SIN3A, endogenous in mouse ESCs (protein, UniProt Q60520 1-1274)
chain: MKRRLDDQESPVYAAQQRRIPGSTEAFSHQHRVLAPAPPVYEAVSETMQSATGIQYSVAPNYQVSAVPQSSGSHGPAIAAVHSSHHHPTAVQPHGGQVVQSHAHPAPPVAPVQGQQQFQRLKVEDALSYLDQVKLQFGSQPQVYNDFLDIMKEFKSQSIDTPGVISRVSQLFKGHPDLIMGFNTFLPPGYKIEVQTNDMVNVTTPGQVHQIPTHGIQPQPQPPPQHPSQPSSQSAPTPAQPAPQPTAAKVSKPSQLQAHTPASQQTPPLPPYASPRSPPVQPHTPVTISLGTAPSLQNNQPVEFNHAINYVNKIKNRFQGQPDIYKAFLEILHTYQKEQRNAKEAGGNYTPALTEQEVYAQVARLFKNQEDLLSEFGQFLPDANSSVLLSKTTAEKVDSVRNDHGGTVKKPQLNNKPQRPSQNGCQIRRHSGTGATPPVKKKPKLMSLKESSMADASKHGVGTESLFFDKVRKALRSAEAYENFLRCLVIFNQEVISRAELVQLVSPFLGKFPELFNWFKNFLGYKESVHLESFPKERATEGIAMEIDYASCKRLGSSYRALPKSYQQPKCTGRTPLCKEVLNDTWVSFPSWSEDSTFVSSKKTQYEEHIYRCEDERFELDVVLETNLATIRVLEAIQKKLSRLSAEEQAKFRLDNTLGGTSEVIHRKALQRIYADKAADIIDGLRKNPSIAVPIVLKRLKMKEEEWREAQRGFNKVWREQNEKYYLKSLDHQGINFKQNDTKVLRSKSLLNEIESIYDERQEQATEENAGVPVGPHLSLAYEDKQILEDAAALIIHHVKRQTGIQKEDKYKIKQIMHHFIPDLLFAQRGDLSDVEEEEEEEMDVDEATGAPKKHNGVGGSPPKSKLLFSNTAAQKLRGMDEVYNLFYVNNNWYIFMRLHQILCLRLLRICSQAERQIEEENREREWEREVLGIKRDKSDSPAIQLRLKEPMDVDVEDYYPAFLDMVRSLLDGNIDSSQYEDSLREMFTIHAYIAFTMDKLIQSIVRQLQHIVSDEVCVQVTDLYLAENNNGATGGQLNSQTSRSLLESAYQRKAEQLMSDENCFKLMFIQSQGQVQLTVELLDTEEENSDDPVEAERWSDYVERYMSSDTTSPELREHLAQKPVFLPRNLRRIRKCQRGREQQEKEGKEGNSKKTMENVESLDKLECRFKLNSYKMVYVIKSEDYMYRRTALLRAHQSHERVSKRLHQRFQAWVDKWTKEHVPREMAAETSKWLMGEGLEGLVPCTTTCDTETLHFVSINKYRVKYGTVFKAP
In the case of B1, the binding result in assay [1] is recorded as “binds”.

B2: MCM4, endogenous in mouse ESCs (protein, UniProt P49717 1-862)
chain: MSSPASTPSRRSSRRGRVTPTQSLRSEESRSSPNRRRRGEDSSTGELLPMPTSPGADLQSPPAQNALFSSPPQMHSLAIPLDFDVSSPLTYGTPSSRVEGTPRSGVRGTPVRQRPDLGSARKGLQVDLQSDGAAAEDIVPSEQSLGQKLVIWGTDVNVATCKENFQRFLQCFTDPLAKEEENVGIDITQPLYMQQLGEINITGEPFLNVNCEHIKSFSKNLYRQLISYPQEVIPTFDMAVNEIFFDRYPDSILEHQIQVRPFNALKTKSMRNLNPEDIDQLITISGMVIRTSQLIPEMQEAFFQCQVCAHTTRVEIDRGRIAEPCSCVHCHTTHSMALIHNRSFFSDKQMIKLQESPEDMPAGQTPHTIVLFAHNDLVDKVQPGDRVNVTGIYRAVPIRVNPRVSNVKSVYKTHIDVIHYRKTDAKRLHGLDEEAEQKLFSEKRVKLLKELSRKPDIYERLASALAPSIYEHEDIKKGILLQLFGGTRKDFSHTGRGKFRAEINILLCGDPGTSKSQLLQYVYNLVPRGQYTSGKGSSAVGLTAYVMKDPETRQLVLQTGALVLSDNGICCIDEFDKMNESTRSVLHEVMEQQTLSIAKAGIICQLNARTSVLAAANPIESQWNPKKTTIENIQLPHTLLSRFDLIFLMLDPQDEAYDRRLAHHLVSLYYQSEEQVEEEFLDMAVLKDYIAYAHSTIMPRLSEEASQALIEAYVNMRKIGSSRGMVSAYPRQLESLIRLAEAHAKVRFSNKVEAIDVEEAKRLHREALKQSATDPRTGIVDISILTTGMSATSRKRKEELAEALRKLILSKGKTPALKYQQLFEDIRGQSDTAITKDMFEEALRALADDDFLTVTGKTVRLL
For B2, the binding result in assay [1] is recorded as “binds”.

B3: JARID2, endogenous in mouse ESCs (protein, UniProt Q62315 1-1234)
chain: MSKERPKRNIIQKKYDDSDGIPWSEERVVRKVLYLSLKEFKNAQKRQHGEGLAGSLKAVNGLLGNAQAKALGPASEQSENEKDDASQVSSTSNDVSSSDFEEGPSRKRPRLQAQRKFAQSQPNSPSTTPVKIVEPLLPPPATQISDLSKRKPKTEDFLTFLCLRGSPALPNSMVYFGSSQDEEDVEEEDDETEDVKATTNNASSSCQSTPRKGKTHKHVHNGHVFNGSSRSAREKEPAHKHRSKEATPGKEKHSEPRADSRREQASGAQPTAASAAASSAKGLAANHQPPPSHRSAQDLRKQVSKVNGVTRMSSLGAGTNSAKKIREVRPSPSKTVKYTATVTKGTVTYTKAKRELVKETKPNHHKPSSAVNHTISGKTESSNAKTRKQVLSLGGASKSTGPAASGLKASSRLNPKSCTKEVGGRQLREGLRNSKRRLEEAQQVDKPQSPPKKMKGVAGNAEAPGKKASAASGEKSLLNGHVKKEVPERSLERNRPKRAAAGKNMLGKQAHGKTEGTPCENRSTSQPESSHKPHDPQGKPEKGSGKSGWAAMDEIPVLRPSAKEFHDPLIYIESVRAQVEKYGMCRVIPPPDWRPECKLNDEMRFVTQIQHIHKLGRRWGPNVQRLACIKKHLRSQGITMDELPLIGGCELDLACFFRLINEMGGMQQVTDLKKWNKLADMLRIPKTAQDRLAKLQEAYCQYLLSYDSLSPEEHRRLEKEVLMEKEILEKRKGPLEGHTESDHHKFHSLPRFEPKNGLVHGVTPRNGFRSKLKEVGRAPLKTGRRRLFAQEKEVVKEEEEDKGVLNDFHKCIYKGRSVSLTTFYRTARNIMNMCFSKEPAPAEIEQEYWRLVEEKDCHVAVHCGKVDTNTHGSGFPVGKSEPFSRHGWNLTVLPNNTGSILRHLGAVPGVTIPWLNIGMVFSTSCWSRDQNHLPYIDYLHTGADCIWYCIPAEEENKLEDVVHTLLQGNGTPGLQMLESNVMISPEVLCKKGIKVHRTVQQSGQFVVCFPGSFVSKVCCGYNVSETVHFATTQWTSMGFETAKEMKRRHIAKPFSMEKLLYQIAQAEAKKENGPTLSTISALLDELRDTELRQRRLLFEAGLHSSARYGSHDGNSTVADGKKKPRKWLQLETSERRCQICQHLCYLSMVVQENENVVFCLECALRHVEKQKSCRGLKLMYRYDEEQIISLVNQICGKVSGKHGGIENCLNKPTPKRGPRKRATVDVPPSRLPSS
For the molecule B3, in assay [1], the binding entry is on record as “binds”.

B4: ALDH2, endogenous in mouse ESCs (protein, UniProt P47738 20-519)
chain: SAAATSAVPAPNHQPEVFCNQIFINNEWHDAVSRKTFPTVNPSTGEVICQVAEGNKEDVDKAVKAARAAFQLGSPWRRMDASDRGRLLYRLADLIERDRTYLAALETLDNGKPYVISYLVDLDMVLKCLRYYAGWADKYHGKTIPIDGDFFSYTRHEPVGVCGQIIPWNFPLLMQAWKLGPALATGNVVVMKVAEQTPLTALYVANLIKEAGFPPGVVNIVPGFGPTAGAAIASHEGVDKVAFTGSTEVGHLIQVAAGSSNLKRVTLELGGKSPNIIMSDADMDWAVEQAHFALFFNQGQCCCAGSRTFVQENVYDEFVERSVARAKSRVVGNPFDSRTEQGPQVDETQFKKILGYIKSGQQEGAKLLCGGGAAADRGYFIQPTVFGDVKDGMTIAKEEIFGPVMQILKFKTIEEVVGRANDSKYGLAAAVFTKDLDKANYLSQALQAGTVWINCYDVFGAQSPFGGYKMSGSGRELGEYGLQAYTEVKTVTVKVPQKNS
Consider B4, for which the binding result in assay [1] and in assay [2] was “binds” throughout.
